Laboratory results taken from patent US20180312579A1 (Genentech, published 2018).
These are yes or no findings as the source states them, for the method shown. Some entries that bind do so weakly or less than the wild type. For some assays here: Where a sequence is shown, tags or fusion partners need not be part of it.

Sequences of proteins named here, by UniProt entry; tags and fusion partners are left off. A change or cut given only in a name is not applied to a line headed by its entry.
UniProt Q6UXX9: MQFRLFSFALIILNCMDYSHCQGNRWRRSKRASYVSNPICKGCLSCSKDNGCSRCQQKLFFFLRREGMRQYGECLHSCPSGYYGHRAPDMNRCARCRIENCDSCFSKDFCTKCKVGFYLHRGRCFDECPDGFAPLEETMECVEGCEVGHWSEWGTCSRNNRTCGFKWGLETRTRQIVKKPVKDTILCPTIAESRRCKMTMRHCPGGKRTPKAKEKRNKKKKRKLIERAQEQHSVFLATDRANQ

Key:
[1] = molecular target: T1, FLAG-tagged human RSPO2 (Genentech) (human, UniProt Q6UXX9 22-243); assay: competitive binding ELISA: titrated against biotinylated RNF43-Flag (RNF43-ECD) binding to plate-coated hRSPO2; signal = bound RNF43, normalized OD
T1 construct: also called hRSPO2; RSPO2 coated plates; not shown: FLAG tag

[2] = molecular target: T2, FLAG-tagged human RSPO3 (Genentech) (human, UniProt Q9BXY4 22-272); assay: competitive binding ELISA: titrated against biotinylated RNF43-Flag (RNF43-ECD) binding to plate-coated hRSPO3; signal = bound RNF43, normalized OD
T2 construct: also called hRSPO3; RSPO3 coated plates; not shown: FLAG tag
T2 sequence: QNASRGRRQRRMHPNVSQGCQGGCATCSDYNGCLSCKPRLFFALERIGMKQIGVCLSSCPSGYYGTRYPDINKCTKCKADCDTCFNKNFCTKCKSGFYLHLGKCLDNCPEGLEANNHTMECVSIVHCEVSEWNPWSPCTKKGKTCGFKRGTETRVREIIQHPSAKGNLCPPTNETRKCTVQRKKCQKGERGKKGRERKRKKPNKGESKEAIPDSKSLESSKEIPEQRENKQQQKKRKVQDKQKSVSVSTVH

B1: RNF43 (receptor)
chain: GFGRTGLVLAAAVESERSAEQKAIIRVIPLKMDPTGKLNLTLEGVFAGVAEITPAEGKLMQSHPLYLCNASDDDNLEPGFISIVKLESPRRAPRPCLSLASKARMAGERGASAVLFDITEDRAAAEQLQQPLGLTWPVVLIWGNDAEKLMEFVYKNQKAHVRIELKEPPAWPDY
notes: kept apart from the biotinylated tracer m34; not shown: FLAG tag and any linker to it
- binding [1]: binds
- binding [2]: binds
